Experimental data published in PubChem BioAssay AID1671190 (National Center for Advancing Translational Sciences (NCATS), 2021).
Where “and” joins values, the source holds several entries; their conditions need not be identical. Equal entries are not always repeated. Out of some 580,000 compounds screened, about 6,100 (1.1%) were called active. The inconclusive results got no clear call from the source; some entries with a clear call stand among them for comparison. Calls come from the whole dose curve; as a rule, active = well fitted inhibition curve with a large enough effect; inconclusive = small, poorly fitted or top-dose-only effect, or another doubt; inactive = no such curve, though single readings can be large or run the other way. Potencies of inconclusive entries are doubtful fits and often do not repeat.

Protein sequences, listed by entry. Tags and fused reporters are not part of them. Lines headed by an entry give the natural chain unless they say otherwise; changes in a name come on top.
UniProt P18054: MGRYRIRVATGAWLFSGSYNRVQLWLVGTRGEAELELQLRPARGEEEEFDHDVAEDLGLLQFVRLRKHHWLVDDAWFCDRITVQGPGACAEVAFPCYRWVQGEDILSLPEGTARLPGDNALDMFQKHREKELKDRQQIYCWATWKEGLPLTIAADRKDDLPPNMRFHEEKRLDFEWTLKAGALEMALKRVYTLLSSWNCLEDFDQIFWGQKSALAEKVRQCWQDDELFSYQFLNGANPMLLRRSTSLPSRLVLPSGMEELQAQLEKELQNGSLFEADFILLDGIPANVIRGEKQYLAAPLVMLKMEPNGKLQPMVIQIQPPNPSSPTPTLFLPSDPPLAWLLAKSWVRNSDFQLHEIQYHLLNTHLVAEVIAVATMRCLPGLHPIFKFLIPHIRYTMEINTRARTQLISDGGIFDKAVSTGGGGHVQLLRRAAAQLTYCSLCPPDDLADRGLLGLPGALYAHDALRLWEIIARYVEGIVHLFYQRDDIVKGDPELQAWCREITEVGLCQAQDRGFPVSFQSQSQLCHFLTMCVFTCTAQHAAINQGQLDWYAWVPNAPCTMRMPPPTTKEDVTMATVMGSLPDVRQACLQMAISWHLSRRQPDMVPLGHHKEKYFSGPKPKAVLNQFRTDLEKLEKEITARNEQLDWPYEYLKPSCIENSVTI

target: Polyunsaturated fatty acid lipoxygenase ALOX12 (Homo sapiens) (UniProt P18054); assay: Primary qHTS assay for inhibitors of human arachidonate 12S-lipoxygenase (ALOX12): Round 2; settings: purified 12hLO, xylenol orange hydroperoxide absorbance; activity change, negative = inhibition: at 108 µM (top of the series) unless noted
Summary of the method: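 Purified human 12hLO at 150 nM in 25 mM Hepes, 0.01% Triton X-100, pH 7.0, preincubated 15 min at room temperature with compound. Reaction started with 40 uM arachidonic acid, 30 min at room temperature. Hydroperoxide measured by Fe-xylenol orange, 573/405 nm absorbance ratio.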
% is set by controls: 0 for no effect and ±100 for the full control effect; potency is the fitted concentration of half-maximal effect.

Compound | Potency | activity change, negative = inhibition
CCn1c(CNC(=O)c2ccccc2F)cc2ccccc21 | inconclusive: 0.447 µM [inhibitor, full curve, poor fit] | 
CN(C)S(=O)(=O)c1cccc(C(=O)N2CCCCC2C(=O)O)c1 (stereo unspecified) | inactive | 
O=C(NCCN1CCCCCC1)C1CCCC1 | inactive | 
O=S(=O)(c1ccc(F)cc1)N1CCN(CC(O)COc2ccccc2F)CC1 (stereo unspecified) | inconclusive: 4.47 µM [inhibitor, full curve, poor fit] | 
CN1CCN(C2=C(Cl)C(=O)N(c3cccc(Cl)c3)C2=O)CC1 | inconclusive: 3.98 µM [inhibitor, full curve, poor fit] | 
CC(C)(C)n1nnnc1C(c1cccnc1)N(Cc1ccccc1)Cc1cccs1 (stereo unspecified) | inconclusive: 7.94 µM [inhibitor, full curve, poor fit] | 
Cc1ccc(CSCC(=O)N2CCOCC2)cc1 | inactive | 
O=C(CSc1ccc(-c2cccnc2)nn1)Nc1ccccc1F | inconclusive: 126 µM [inhibitor, partial curve, poor fit] | 
CCOC(=O)[C@@H]1[C@H]2COc3cc(OC)ccc3[C@H]2N2C(=O)N(c3ccc(OC)cc3)C(=O)[C@]12C | inactive | 
COC(=O)c1c(-c2cccs2)csc1NC(=O)c1cccnc1 | inconclusive: 35.5 µM [inhibitor, partial curve, poor fit] | 
CN1CCN(S(=O)(=O)c2cccc(C(=O)Nc3sc4c(c3C(N)=O)CCCC4)c2)CC1 | inactive | 
O=C(c1ccc(F)c(Cl)c1)N1CCC(c2n[nH]c(=O)n2-c2ccccc2)CC1 | inconclusive: 44.7 µM [inhibitor, partial curve] | 
COC(=O)Cc1c(C)c2ccc(OCC(=O)OC(C)(C)C)cc2oc1=O | inconclusive: 39.8 µM [inhibitor, single point] | 
CCOc1ccc2nc(NC(=S)N(C)C)sc2c1 | active: 44.7 µM | 
CNC(=O)c1ccc(-c2nc(CN3CCN(C(=O)Nc4ccc(OC)cc4)CC3)c(C)o2)cc1 | inconclusive: 5.01 µM [inhibitor, partial curve, poor fit] | 
CCC(=O)Nc1nc2nc(C)cc(=O)n2[nH]1 | inconclusive: 7.94 µM [inhibitor, full curve, poor fit] | 
CCC(C)Sc1nc2ccccc2n1CC(=O)O (stereo unspecified) | inconclusive: 35.5 µM [inhibitor, partial curve, poor fit] | 
CS(=O)(=O)N1CCc2ccc(C(=O)Nc3ccc(Cl)c(C(F)(F)F)c3)cc21 | inactive | 
CCN(CC)CCCN(C(=O)c1ccco1)c1nc(-c2ccc(Cl)cc2)cs1 | inconclusive: 50.1 µM [inhibitor, partial curve, poor fit] | 
Cc1ccc(NC(=O)N2CCC(CCNC(=O)c3sccc3C)CC2)cc1 | inactive | 
CCn1c(O)c(/C=C2\C=NN=C2c2ccc(C)cc2)sc1=S | inconclusive: 5.01 µM [inhibitor, full curve, poor fit] | 
CCCNC(=O)N1CCC(N2C(=O)[C@H](OCCOC)[C@@H]2c2ccncc2)CC1 | inactive | 

Quoted at random: two compounds from above, in no set order.
Compound | Potency | activity change, negative = inhibition
CCCNC(=O)N1CCC(N2C(=O)[C@H](OCCOC)[C@@H]2c2ccncc2)CC1 | inactive | 
O=C(NCCN1CCCCCC1)C1CCCC1 | inactive | 

Next part:

Compound | Potency | activity change, negative = inhibition
O=C(Nc1ccccc1)Nc1cccn(Cc2c(F)cccc2Cl)c1=O | inconclusive: 50.1 µM [inhibitor, partial curve, poor fit] | 
O=C(Nc1cccc(C(F)(F)F)c1)c1cccnc1NCCc1ccccc1 | inconclusive: 56.2 µM [inhibitor, partial curve, poor fit] | 
CCC(c1nnnn1-c1ccc2c(c1)OCCO2)N1CCN(Cc2c(F)cccc2Cl)CC1 (stereo unspecified) | inconclusive: 112 µM [inhibitor, single point] | 
CNC(=O)CNC(=O)c1cccc(Br)c1 | inactive | 
CCOc1ccc(C(=O)N2CC(c3nnc(C(C)C)o3)C3(CCOCC3)C2)cc1 (stereo unspecified) | inactive | 
COc1ccccc1-c1noc(CCCC(=O)Nc2ccc(C(N)=O)cc2)n1 | inconclusive: 126 µM [inhibitor, partial curve, poor fit] | 
CCOc1ccc(S(=O)(=O)Nc2cccc(Cl)c2)cc1 |  | inconclusive: -50.6% [inhibitor]
Cc1cc(S(=O)(=O)NC(=O)[C@H]2O[C@@H](n3cnc4c(N)ncnc43)[C@H](O)[C@@H]2O)ccc1Br | inconclusive: 39.8 µM [inhibitor, partial curve, poor fit] | 
O=C(NC1CCCCC1)C(c1ccnc2ccccc12)N1CCOCC1 (stereo unspecified) | inconclusive: 44.7 µM [inhibitor, partial curve, poor fit] | 
Cc1ccc(S(=O)(=O)Nc2cccc(S(=O)(=O)C3CCCC3)c2)c(C)c1 | inactive | 
O=C(Cc1ccc(Br)cc1)N1CCN(c2cccc(Cl)c2)CC1 | inconclusive: 70.8 µM [inhibitor, partial curve, poor fit] | 
O=C(c1cccnc1)N(Cc1ccccc1)C(c1ccccc1)c1nc2ccccc2[nH]1 (stereo unspecified) | inconclusive: 79.4 µM [inhibitor, single point] | 
Cc1ccc2c(c1)c(=O)c1ccccc1n2CCCC(=O)Nc1ccc(Cl)cc1C | inactive | 
O=C(N/C=N/OCc1ccc(Cl)cc1Cl)NOCc1c(Cl)cccc1Cl | inconclusive: 126 µM [inhibitor, single point] | 
CCC(c1ccc(O)cc1)C(CC)c1ccc(O)cc1 (stereo unspecified) | inconclusive: 4.32 µM [inhibitor, partial curve, poor fit] and inconclusive: 44.7 µM [inhibitor, partial curve] | 
NC(=O)c1ccc(N2CCNC(=O)C2)c([N+](=O)[O-])c1 | inconclusive: 100 µM [inhibitor, partial curve, poor fit] | 
CC(C)[N+](C)(C)CC#CC(O)(c1ccccc1)c1ccccc1 | inconclusive: 50.1 µM [inhibitor, partial curve, poor fit] and inconclusive: 7.08 µM [inhibitor, partial curve, poor fit] | 
O=C(Nc1cccc([N+](=O)[O-])c1)c1ccncc1 | inactive | 
CCCCn1c(N)c(N(Cc2ccccc2OC)C(=O)CC2OC(=O)c3ccccc32)c(=O)[nH]c1=O (stereo unspecified) | inactive | 
CC(C)c1ccc(NC(=O)CN2CCN(C(=O)c3cccs3)CC2)cc1 | inactive | 
Cc1noc(/C=C/N(C)C)c1S(=O)(=O)N(C)Cc1ccc(F)cc1 | inactive | 
Cn1cccc1C(=O)N1CCCC(c2nnnn2C)C1 (stereo unspecified) | inconclusive: 2.24 µM [inhibitor, full curve, poor fit] | 

Compound | Potency | activity change, negative = inhibition
COc1cc(/C=N/Nc2ccc(Cl)nn2)cc(OC)c1O | inconclusive: 50.1 µM [inhibitor, partial curve, poor fit] | 
O=C(CC1(O)C(=O)Nc2ccc(Br)cc21)c1ccccc1 (stereo unspecified) | inconclusive: 50.1 µM [inhibitor, partial curve, poor fit] | 
CCC(C)c1ccc(O)c(NC(=S)NC(=O)c2cccs2)c1 (stereo unspecified) | active: 22.4 µM | 
CCCCn1c(N)c(N(CCOC)C(=O)COC(=O)c2cc(CCC)c(C)s2)c(=O)[nH]c1=O | inconclusive: 126 µM [inhibitor, single point] | 
CCC[C@H](N)C(=O)N1CCC2(CCC(=O)N(Cc3cnc(C)cn3)C2)CC1 | inactive | 
Oc1ccc(/C=N/NC(=S)Nc2cccnc2)c(O)c1O | inconclusive: 12.6 µM [inhibitor, partial curve, poor fit] | 
Cc1ccc2[nH]cc(C(C(=O)O)N3CCCN(c4ccc(C(F)(F)F)cn4)CC3)c2c1 (stereo unspecified) | inactive | 
CCN(CC(=O)NCc1cccs1)C(=O)c1cc(S(=O)(=O)N2CCOCC2)ccc1C | inactive | 
CCc1ccc(Cl)c(CC)c1NC(=O)C1CC2CCC(C1)C21SCCS1 (stereo unspecified) | inactive | 
COCC(C)n1c(SCc2nc(N)nc(Nc3ccccc3C)n2)nc2ccccc2c1=O (stereo unspecified) | inconclusive: 50.1 µM [inhibitor, partial curve, poor fit] | 
CCCc1[nH]nc2c1C(c1ccc(OC)c(CSC3=NCCS3)c1)C(C#N)=C(N)O2 (stereo unspecified) | inconclusive: 50.1 µM [inhibitor, partial curve, poor fit] | 
C#CCOCCOCCOCCNc1nc(N2CCN(C(=O)CCCCCCCCCCNC(=O)[C@H](CO)n3cc(CCCSC)nn3)CC2)nc(N2CCN(C(=O)CCCCCCCCCCNC(=O)[C@H](CO)n3cc(CCCSC)nn3)CC2)n1 | inconclusive: 39.8 µM [inhibitor, partial curve] | 
CCOC(=O)c1sc(NC(=O)CCN2CCCCCC2)c(C(=O)OCC)c1C | inconclusive: 89.1 µM [inhibitor, single point] | 
Cn1nc(CC(=O)OCC(=O)NC(C)(C)C)c2ccccc2c1=O | inactive | 
COc1ccccc1CNc1ncncc1-c1ccccc1OC | inconclusive: 100 µM [inhibitor, single point] | 
COC(=O)c1ccc2c(=O)n(CCO)c(=S)[nH]c2c1 | inactive | 
Cc1ccc(S(=O)(=O)N2CCC(C(=O)Nc3ccc(S(=O)(=O)N4CCCC4)cc3)CC2)cc1C | inconclusive: 100 µM [inhibitor, single point] | 
COc1ccc2[nH]c(C[C@@H]3C[C@@H](C(C)C)[C@H](CN(C)C)C=C3C)nc2n1 | inactive | 
CC(=O)c1cccc(NC(=O)N2CCCC2C(=O)Nc2cccc(C)c2)c1 (stereo unspecified) | inconclusive: 44.7 µM [inhibitor, partial curve, poor fit] | 
CC(C)(C)C(=O)N1CCN(c2ccc([N+](=O)[O-])c(NCc3cccnc3)c2)CC1 | inactive | 
CCOC(=O)[C@H]1[C@H]2COc3ccc(C)cc3[C@@H]2N2C(=O)c3cc(Br)ccc3NC(=O)[C@@]12C | inconclusive: 100 µM [inhibitor, single point] | 
O=C(CCc1c[nH]c2ccccc12)Nc1ccc(F)cc1F | inactive | 
